The assay concerns the target MotB containing a C-terminal intein tag with a chitin binding domain (bacteriophage T4). The assay can be described thus: pull-down; lysate of BL21(DE3)/pLysE producing MotB-Intein/CBD applied to chitin resin; washed with CB buffer containing 500 mM NaCl, then 1 M NaCl; resin proteins on SDS-PAGE (Coomassie), bands identified by mass spectrometry; MotB not denatured, host DNA present.

No constants are given. Whether binding was seen depends on the method and setting. In cells and extracts the contact can be indirect. Binding can be weak; no strength is given.

B1: StpA (protein, UniProt P0ACG1 1-134)
chain: MSVMLQSLNNIRTLRAMAREFSIDVLEEMLEKFRVVTKERREEEEQQQRELAERQEKISTWLELMKADGINPEELLGNSSAAAPRAGKKRQPRPAKYKFTDVNGETKTWTGQGRTPKPIAQALAEGKSLDDFLI
B1: the binding result is on record as “binds”.

For the origin of these results see paper PMC6070864, “The Bacteriophage T4 MotB Protein, a DNA-Binding Protein, Improves Phage Fitness”.
